Laboratory results taken from article PMC11100904, “How short peptides can disassemble ultra-stable tau fibrils extracted from Alzheimer’s disease brain by a strain-relief mechanism” (Research Square, 2024).
These are yes or no findings as the source states them, for the method shown. Some entries that bind do so weakly or less than the wild type.

Protein sequences, listed by entry. Tags and fused reporters are not part of them. Lines headed by an entry give the natural chain unless they say otherwise; changes in a name come on top. Residues count along the entry.
UniProt P10636: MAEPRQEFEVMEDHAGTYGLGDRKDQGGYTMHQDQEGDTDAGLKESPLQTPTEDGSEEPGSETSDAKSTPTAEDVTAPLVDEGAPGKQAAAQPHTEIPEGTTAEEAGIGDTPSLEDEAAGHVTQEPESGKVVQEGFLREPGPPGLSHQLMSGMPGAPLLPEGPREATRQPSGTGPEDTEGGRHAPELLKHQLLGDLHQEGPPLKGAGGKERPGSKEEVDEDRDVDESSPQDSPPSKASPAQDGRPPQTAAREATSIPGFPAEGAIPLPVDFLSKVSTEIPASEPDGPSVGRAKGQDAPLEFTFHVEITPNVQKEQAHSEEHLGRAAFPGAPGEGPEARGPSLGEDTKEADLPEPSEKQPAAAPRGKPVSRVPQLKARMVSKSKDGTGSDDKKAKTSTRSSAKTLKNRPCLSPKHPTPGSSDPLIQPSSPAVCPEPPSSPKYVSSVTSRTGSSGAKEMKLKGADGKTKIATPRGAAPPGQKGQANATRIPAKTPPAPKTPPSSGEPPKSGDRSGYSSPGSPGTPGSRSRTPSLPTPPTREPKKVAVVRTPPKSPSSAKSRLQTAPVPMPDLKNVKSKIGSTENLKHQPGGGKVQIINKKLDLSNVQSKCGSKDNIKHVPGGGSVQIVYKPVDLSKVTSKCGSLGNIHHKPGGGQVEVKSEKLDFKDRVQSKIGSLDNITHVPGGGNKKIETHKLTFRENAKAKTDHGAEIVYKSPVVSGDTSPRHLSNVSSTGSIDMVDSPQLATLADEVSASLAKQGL
15N,13C-labeled tau K18+ (residues Gln244-Glu380 of 4R tau): residues 561-697 of P10636

Assays:
[1] = target: D-TLKIVWI; assay: X-ray fibre diffraction; 10 mM peptide in deionized water, room temperature, quiescent, three days; fibrils aligned between glass rods, dried, 100 K; both purified
[2] = target: D-TLKIVWI; assay: cryo-EM structure; AD-tau fibrils in 20 mM Tris-HCl pH 7.4, 100 mM NaCl pre-incubated at 37 °C with 100 μM D-TLKIVWX (X = I, S, R) for 24 hours (estimated 100:1 peptide to tau); control tau fibrils of the same donor without peptide; both purified
[3] = target: tau fibrils extracted from AD brains (AD-tau), paired helical filament (PHF) (human (endogenous in AD patient brain)) (UniProt P10636); assay: as above
[4] = target: D-TLKIVWI; assay: cryo-EM structure; fibrils of the D-peptide alone: 4 mM D-TLKIVWI shaken in deionized water at room temperature for three days; 10 mM D-TLKIVWS/R in deionized water undisturbed for three days at room temperature (D-TLKIVWR at pH 7.0); both purified
[5] = target: 15N,13C-labeled tau K18+ (residues Gln244-Glu380 of 4R tau) (UniProt P10636); assay: NMR titration; 1H-15N HSQC, 0.1 mM 15N,13C-labeled tau K18+ in 100 mM KCl, 20 mM NaH2PO4, 1 mM TCEP, 5%/95% D2O/H2O, pH 7.0, without or with 1 mM peptide (10-fold molar excess), 25 °C; chemical shift perturbation; one concentration, changes seen over time (2.5 months at 4 °C for D-TLKIVWI); both purified
[6] = target: D-TLKIVWR; assay: X-ray fibre diffraction; 10 mM peptide in deionized water, room temperature, quiescent, three days; fibrils aligned between glass rods, dried, 100 K; both purified
[7] = target: D-TLKIVWR; assay: cryo-EM structure; AD-tau fibrils in 20 mM Tris-HCl pH 7.4, 100 mM NaCl pre-incubated at 37 °C with 100 μM D-TLKIVWX (X = I, S, R) for 24 hours (estimated 100:1 peptide to tau); control tau fibrils of the same donor without peptide; both purified
[8] = target: D-TLKIVWR; assay: cryo-EM structure; fibrils of the D-peptide alone: 4 mM D-TLKIVWI shaken in deionized water at room temperature for three days; 10 mM D-TLKIVWS/R in deionized water undisturbed for three days at room temperature (D-TLKIVWR at pH 7.0); both purified
[9] = target: D-TLKIVWS; assay: X-ray fibre diffraction; 10 mM peptide in deionized water, room temperature, quiescent, three days; fibrils aligned between glass rods, dried, 100 K; both purified
[10] = target: D-TLKIVWS; assay: cryo-EM structure; AD-tau fibrils in 20 mM Tris-HCl pH 7.4, 100 mM NaCl pre-incubated at 37 °C with 100 μM D-TLKIVWX (X = I, S, R) for 24 hours (estimated 100:1 peptide to tau); control tau fibrils of the same donor without peptide; both purified
[11] = target: D-TLKIVWS; assay: cryo-EM structure; fibrils of the D-peptide alone: 4 mM D-TLKIVWI shaken in deionized water at room temperature for three days; 10 mM D-TLKIVWS/R in deionized water undisturbed for three days at room temperature (D-TLKIVWR at pH 7.0); both purified

Measured: binding

B1: D-TLKIVWI (peptide)
peptide: TLKIVWI
modifications: all residues are D-amino acids (D-peptide)
binds: [1] | [2] | [3] | [4] | [5]

B2: D-TLKIVWR (peptide)
peptide: TLKIVWR
modifications: all residues are D-amino acids (D-peptide)
binds: [6] | [7] | [3] | [8]

B3: D-TLKIVWS (peptide)
peptide: TLKIVWS
modifications: all residues are D-amino acids (D-peptide)
binds: [9] | [10] | [3] | [11] | [5]
